Test results from paper PMC6679371, “Synthesis and Evaluation of Novel Pyrazole Ethandiamide Compounds as Inhibitors of Human THP-1 Monocytic Cell Neurotoxicity” (Cells, 2019).
Entries after “also recorded” stand apart in the source; their conditions may differ.

Test: Compatibility control: compounds mixed with MTT solution in the absence of cells
Conditions: 1–100 µM, absorbance at 570 nm, no cells
Procedure: The new pyrazole derivatives 2a–f and 3 were tested in vitro to determine their cytotoxicity as well as their anti-neurotoxic and neuroprotective properties. […] The compatibility of compounds 2 and 3 with the assay used in this study was investigated first. Thus, controls were performed with all compounds and the MTT reagent used in the cell viability assay; the absorbance at 570 nm was measured after mixing the compounds with the MTT solution in the absence of cells.

Structure (SMILES): N#Cc1cnn(-c2ccccc2)c1NC(=O)C(=O)Nc1ccc(O)cc1 [2f]
- reaction with / interference with the MTT reagent: found to react with the MTT reagent; also recorded: interfered with the MTT assay
